Values from PubChem BioAssay AID1259405 (NCATS, 2018).
This is one part, drawn at random, of about 50,000 reagents. About 4,000 of them (8%) count as active. 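Mouse siRNA library applied to hamster cells; one well for each siRNA.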 The numbers tell different reagents against one gene apart. No sequences are given here.

Assay: 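Mouse-designed siRNAs used to find CHO productivity engineering targets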 (primary screen)
Cells: Chinese hamster CHO-K1 ovary cells with stable secreted eGFP expression
Knock-down reagent: single siRNA against mouse genes, 0.8 pmol siRNA per well (2 µl of 400 nM stock)
Time to read-out: 3 days
Detection: 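Percent of the per-plate non-targeting control median for intracellular GFP per well by laser scanning cytometry and for cell viability by ATP luminescence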
Scale: GFP, % of control: higher = more GFP per well, higher productivity; viability (ATP), % of control: higher = more viable cells (more ATP)
Call rule: 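a knock-down is called active if GFP reaches 120% or more of non-targeting control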

Dcstamp (GeneID 75766) #1 showed GFP, % of control 105; viability (ATP), % of control 79.9; inactive. Depletion of Dcstamp (GeneID 75766) #2 gave: GFP, % of control 73.1; viability (ATP), % of control 74.6; inactive. Against Dcstamp (GeneID 75766) #3 the deposit lists GFP, % of control 92.5; viability (ATP), % of control 73.5; inactive. Atp1a1 (GeneID 11928) #1 gave GFP, % of control 103; viability (ATP), % of control 105; inactive. Atp1a1 (GeneID 11928) #2 scored GFP, % of control 150; viability (ATP), % of control 123; active. For Atp1a1 (GeneID 11928) #3 the deposit lists GFP, % of control 82.7; viability (ATP), % of control 93.2; inactive.

With knock-down of Klra20 (GeneID 93967) #1 the results were GFP, % of control 101; viability (ATP), % of control 112; inactive. After knock-down of Klra20 (GeneID 93967) #2 the results were GFP, % of control 70; viability (ATP), % of control 67.3; inactive. After knock-down of Klra20 (GeneID 93967) #3 the results were GFP, % of control 94.8; viability (ATP), % of control 76.9; inactive.

Reagents listed so far called active:
Atp1a1 (GeneID 11928) #2 | GFP, % of control = 150; viability (ATP), % of control = 123; Call = active

Further reagents follow:
Pdzrn3 (GeneID 55983) #1 showed GFP, % of control 40.8; viability (ATP), % of control 58.6; inactive. Depletion of Pdzrn3 (GeneID 55983) #2 resulted in: GFP, % of control 63.1; viability (ATP), % of control 50.4; inactive. Pdzrn3 (GeneID 55983) #3 showed GFP, % of control 66.2; viability (ATP), % of control 82; inactive. For Dach1 (GeneID 13134) #1, the values are GFP, % of control 56.7; viability (ATP), % of control 64.8; inactive. For Dach1 (GeneID 13134) #2, the values are GFP, % of control 48.2; viability (ATP), % of control 59.7; inactive. Dach1 (GeneID 13134) #3 gave GFP, % of control 111; viability (ATP), % of control 92.8; inactive.

Depletion of Vax1 (GeneID 22326) #1 resulted in: GFP, % of control 84.9; viability (ATP), % of control 78.9; inactive. Vax1 (GeneID 22326) #2 gave GFP, % of control 62.8; viability (ATP), % of control 72.8; inactive. With knock-down of Grm4 (GeneID 268934) #1 the results were GFP, % of control 42.8; viability (ATP), % of control 68.1; inactive. Silencing of Grm4 (GeneID 268934) #2 gave: GFP, % of control 67.7; viability (ATP), % of control 70.3; inactive. For Grm4 (GeneID 268934) #3, the values are GFP, % of control 68.9; viability (ATP), % of control 74.3; inactive. For Ncor1 (GeneID 20185) #1 the deposit lists GFP, % of control 69.1; viability (ATP), % of control 75; inactive.

After knock-down of Ncor1 (GeneID 20185) #2, the screen gave GFP, % of control 88.8; viability (ATP), % of control 74.6; inactive. For Zfp386 (GeneID 56220) #1, the entry reads GFP, % of control 31.9; viability (ATP), % of control 44.8; inactive. Knock-down of Zfp386 (GeneID 56220) #2 resulted in: GFP, % of control 60.4; viability (ATP), % of control 60.4; inactive. Silencing of Zfp386 (GeneID 56220) #3 came out at: GFP, % of control 104; viability (ATP), % of control 65.1; inactive. For Or2d4 (GeneID 258594) #1, the values are GFP, % of control 102; viability (ATP), % of control 70.9; inactive. Or2d4 (GeneID 258594) #2 scored GFP, % of control 112; viability (ATP), % of control 89; inactive.

With knock-down of Or2d4 (GeneID 258594) #3, the record shows GFP, % of control 77.9; viability (ATP), % of control 89.1; inactive.
